# Assay results from patent publication US20190367618A1 (SHANGHAI JUNSHI BIOSCIENCES, published 2019).
# Chains of the proteins cited; added tags and fusions are not shown. Residues count along the entry.
# UniProt Q9NZQ7, residues 19-290: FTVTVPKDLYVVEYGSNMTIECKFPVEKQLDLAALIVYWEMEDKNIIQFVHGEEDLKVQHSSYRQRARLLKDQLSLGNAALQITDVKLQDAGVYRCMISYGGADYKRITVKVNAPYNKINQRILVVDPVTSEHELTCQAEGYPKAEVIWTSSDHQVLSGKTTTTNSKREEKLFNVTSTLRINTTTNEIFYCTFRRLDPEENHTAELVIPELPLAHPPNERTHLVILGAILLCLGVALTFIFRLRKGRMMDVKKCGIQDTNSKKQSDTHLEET
# Changes are numbered by the printed parent chain. These are yes or no findings as the source states them, for the method shown. Some entries that bind do so weakly or less than the wild type.
# B1: humanized antibody 30 (antibody, V domains shown)
# VH: QGQLQESGPSLVKPSQTLSLTCTVSGDSITRGYWNWIRKHPGKGLEYIGYISYTGSTYSNLSLKSRVTISRDTSKNQYYLKLSSVTAADTAVYYCATSTGWLDPVDYWGQGTLVTVSS
# VL: DIVMTQSPDSLAVSLGERATINCKASQNVDTSVAWFQQKPGQPPKALIYSASFRYSGVPDRFSGSGSGTDFTLTISSLQAEDVAVYFCQQYYGYPFTFGQGTKLEIK
# B2: humanized antibody 38 (antibody, V domains shown)
# VH: B1 VH with H40P
# VL: DIQMTQSPSSLSASVGDRVTITCRASQNVDTSVAWFQQKPGKAPKALIYSASFRYSGVPSRFSGSGSGTDFTLTISSLQPEDFATYFCQQYYGYPFTFGQGTKLEIK
# Target: T1, PD-L1 on 293F cells (UniProt Q9NZQ7 19-290, limits assumed)
# T1 construct: whole, on cells
# Assay: flow cytometry on 293F cells expressing PD-L1
# Experimental: Antibody (humanized antibodies 30, 38) dilutions at different concentrations was added in a volume of 50 μl, mixed and incubated at room temperature for 30 min. The cells were washed twice with FACS buffer, contacted with 100 μl of goat anti-human IgG-PE antibody, and incubated for 30 min in the dark. FACS was performed after washing twice with FACS buffer.
binder,measurement,value
B1,binding,binds
B2,binding,binds
